Data taken from PMC4342582.
Results are given in words; binding and its absence hold for the method and conditions named. In cells and extracts the contact can be indirect. Some results given as binding are weak or reduced against the parent protein; the word gives no strength.

Sequences of proteins named here, by UniProt entry; tags and fusion partners are left off.
UniProt Q9NZI8: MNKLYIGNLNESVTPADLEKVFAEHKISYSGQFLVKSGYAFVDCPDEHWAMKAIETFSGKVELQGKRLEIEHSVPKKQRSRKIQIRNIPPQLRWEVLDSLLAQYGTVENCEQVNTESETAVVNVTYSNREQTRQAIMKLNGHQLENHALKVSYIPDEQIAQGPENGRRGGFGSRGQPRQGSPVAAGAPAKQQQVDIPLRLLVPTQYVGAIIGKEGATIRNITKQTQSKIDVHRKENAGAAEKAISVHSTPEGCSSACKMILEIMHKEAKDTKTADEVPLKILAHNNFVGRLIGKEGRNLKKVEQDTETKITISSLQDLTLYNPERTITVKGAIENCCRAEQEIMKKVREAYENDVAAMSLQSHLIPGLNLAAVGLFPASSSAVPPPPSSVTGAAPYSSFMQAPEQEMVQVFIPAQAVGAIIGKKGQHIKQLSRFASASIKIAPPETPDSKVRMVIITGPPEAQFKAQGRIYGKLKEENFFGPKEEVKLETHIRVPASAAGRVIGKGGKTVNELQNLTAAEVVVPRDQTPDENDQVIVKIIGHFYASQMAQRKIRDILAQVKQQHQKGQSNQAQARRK
UniProt P52732: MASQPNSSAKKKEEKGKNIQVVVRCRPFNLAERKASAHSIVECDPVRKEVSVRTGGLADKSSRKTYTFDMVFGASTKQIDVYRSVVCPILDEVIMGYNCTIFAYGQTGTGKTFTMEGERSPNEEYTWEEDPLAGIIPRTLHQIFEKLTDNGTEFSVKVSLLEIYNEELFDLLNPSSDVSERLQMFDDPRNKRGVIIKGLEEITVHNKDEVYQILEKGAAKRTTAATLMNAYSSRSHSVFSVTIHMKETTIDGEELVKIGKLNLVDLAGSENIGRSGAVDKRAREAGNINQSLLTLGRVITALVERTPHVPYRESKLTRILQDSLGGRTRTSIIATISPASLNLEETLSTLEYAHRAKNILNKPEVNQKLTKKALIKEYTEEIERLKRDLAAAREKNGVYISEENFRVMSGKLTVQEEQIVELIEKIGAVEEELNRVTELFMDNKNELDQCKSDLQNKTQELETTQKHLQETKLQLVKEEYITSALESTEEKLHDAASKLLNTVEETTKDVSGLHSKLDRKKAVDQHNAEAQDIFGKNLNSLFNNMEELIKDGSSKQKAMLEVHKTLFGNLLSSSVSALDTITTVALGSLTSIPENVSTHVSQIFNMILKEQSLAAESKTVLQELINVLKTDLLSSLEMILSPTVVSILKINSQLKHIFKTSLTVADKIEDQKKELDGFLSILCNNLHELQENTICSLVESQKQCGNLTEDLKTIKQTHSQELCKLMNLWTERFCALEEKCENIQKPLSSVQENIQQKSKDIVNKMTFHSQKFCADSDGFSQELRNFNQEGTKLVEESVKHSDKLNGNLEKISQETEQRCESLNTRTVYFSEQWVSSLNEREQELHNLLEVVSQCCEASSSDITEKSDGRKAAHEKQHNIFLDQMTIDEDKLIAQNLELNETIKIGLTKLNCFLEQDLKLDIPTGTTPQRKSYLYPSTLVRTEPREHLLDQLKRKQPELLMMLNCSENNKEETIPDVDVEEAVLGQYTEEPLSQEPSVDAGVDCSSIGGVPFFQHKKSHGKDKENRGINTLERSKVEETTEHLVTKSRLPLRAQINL

Target: MBP-ZBP1 full length (UniProt Q9NZI8)
Test: pull-down; MBP-ZBP1 fusion proteins (0.1-0.5 µg) on amylose beads, incubated with cell extract on ice for 4 h; eluted with 20 mM maltose; western blot for KIF11; only the target purified

binding: binds
Substance: KIF11, endogenous (from UniProt P52732 1-1056)
